These are yes or no findings as the source states them, for the method shown. Binding seen in cells or lysates may run through a third protein. Here binding means that the protein was enriched with, or labelled near, the bait; the list need not be complete.
B1: γ-catenin (protein, UniProt P14923 1-745)
chain: MEVMNLMEQPIKVTEWQQTYTYDSGIHSGANTCVPSVSSKGIMEEDEACGRQYTLKKTTTYTQGVPPSQGDLEYQMSTTARAKRVREAMCPGVSGEDSSLLLATQVEGQATNLQRLAEPSQLLKSAIVHLINYQDDAELATRALPELTKLLNDEDPVVVTKAAMIVNQLSKKEASRRALMGSPQLVAAVVRTMQNTSDLDTARCTTSILHNLSHHREGLLAIFKSGGIPALVRMLSSPVESVLFYAITTLHNLLLYQEGAKMAVRLADGLQKMVPLLNKNNPKFLAITTDCLQLLAYGNQESKLIILANGGPQALVQIMRNYSYEKLLWTTSRVLKVLSVCPSNKPAIVEAGGMQALGKHLTSNSPRLVQNCLWTLRNLSDVATKQEGLESVLKILVNQLSVDDVNVLTCATGTLSNLTCNNSKNKTLVTQNSGVEALIHAILRAGDKDDITEPAVCALRHLTSRHPEAEMAQNSVRLNYGIPAIVKLLNQPNQWPLVKATIGLIRNLALCPANHAPLQEAAVIPRLVQLLVKAHQDAQRHVAAGTQQPYTDGVRMEEIVEGCTGALHILARDPMNRMEIFRLNTIPLFVQLLYSSVENIQRVAAGVLCELAQDKEAADAIDAEGASAPLMELLHSRNEGTATYAAAVLFRISEDKNPDYRKRVSVELTNSLFKHDPAAWEAAQSMIPINEPYGDDMDATYRPMYSSDVPLDPLEMHMDMDGDYPIDTYSDGLRPPYPTADHMLA

Chains of the proteins cited; added tags and fusions are not shown. Residues count along the entry.
UniProt Q08722, residues 19-323: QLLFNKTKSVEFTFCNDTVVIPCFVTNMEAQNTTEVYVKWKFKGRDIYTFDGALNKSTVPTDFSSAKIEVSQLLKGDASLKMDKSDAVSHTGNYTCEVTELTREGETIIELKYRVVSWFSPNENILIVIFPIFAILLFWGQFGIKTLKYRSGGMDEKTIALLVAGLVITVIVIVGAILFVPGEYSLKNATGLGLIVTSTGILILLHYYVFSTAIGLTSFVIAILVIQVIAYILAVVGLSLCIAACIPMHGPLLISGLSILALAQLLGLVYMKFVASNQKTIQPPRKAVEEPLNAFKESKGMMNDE
UniProt P07996, residues 19-1170: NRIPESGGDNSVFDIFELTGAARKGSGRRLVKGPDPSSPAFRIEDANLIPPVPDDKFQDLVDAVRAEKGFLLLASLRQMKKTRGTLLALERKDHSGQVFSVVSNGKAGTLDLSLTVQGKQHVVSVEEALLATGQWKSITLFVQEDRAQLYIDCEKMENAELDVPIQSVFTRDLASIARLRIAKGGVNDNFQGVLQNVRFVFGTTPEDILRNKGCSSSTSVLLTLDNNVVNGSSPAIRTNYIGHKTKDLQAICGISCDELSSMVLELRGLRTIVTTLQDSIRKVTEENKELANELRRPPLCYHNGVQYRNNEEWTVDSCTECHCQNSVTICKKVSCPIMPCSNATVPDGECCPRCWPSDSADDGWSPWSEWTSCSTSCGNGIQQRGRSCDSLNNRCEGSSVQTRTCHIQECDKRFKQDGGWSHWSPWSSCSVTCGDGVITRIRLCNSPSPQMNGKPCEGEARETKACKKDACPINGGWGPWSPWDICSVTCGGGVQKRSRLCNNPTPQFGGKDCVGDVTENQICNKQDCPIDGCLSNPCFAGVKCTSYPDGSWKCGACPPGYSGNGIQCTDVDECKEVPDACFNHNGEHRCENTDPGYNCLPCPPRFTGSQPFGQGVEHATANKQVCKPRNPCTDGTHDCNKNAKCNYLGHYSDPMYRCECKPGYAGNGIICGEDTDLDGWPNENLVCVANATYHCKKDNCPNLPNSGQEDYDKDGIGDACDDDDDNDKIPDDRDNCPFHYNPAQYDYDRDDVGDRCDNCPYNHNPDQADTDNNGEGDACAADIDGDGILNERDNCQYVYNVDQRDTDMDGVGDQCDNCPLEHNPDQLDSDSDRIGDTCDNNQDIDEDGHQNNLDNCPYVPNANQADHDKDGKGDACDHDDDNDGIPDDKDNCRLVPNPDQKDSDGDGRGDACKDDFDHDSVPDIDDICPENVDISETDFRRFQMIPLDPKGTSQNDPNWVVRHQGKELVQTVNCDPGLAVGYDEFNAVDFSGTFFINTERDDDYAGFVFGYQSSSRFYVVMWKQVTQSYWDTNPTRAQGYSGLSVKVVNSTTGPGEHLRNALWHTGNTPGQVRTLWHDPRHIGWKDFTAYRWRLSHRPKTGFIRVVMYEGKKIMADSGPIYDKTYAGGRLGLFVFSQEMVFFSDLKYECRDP

Biological target: CD47 (human (endogenous in HK-2)) (UniProt Q08722)
Assay: affinity purification with mass spectrometry; anti-CD47 on Protein G Sepharose beads, lysate of HK-2 cells under OX-LDL stimulation, 4°C 12 h; precipitated proteins cut from SDS-PAGE gel, LC-MS/MS

| Molecule | binding |
| --- | --- |
| thrombospondin-1 (from UniProt P07996 19-1170) (ligand) | binds |
| B1 | binds |

Reference: publication PMC7930485
